Two molecules from US20020199211A1 (CHILDREN S MEDICAL CENTER, published 2002) can be followed below.

Test [1] addresses T1, Glutathione S-transferase (GST) alone (UniProt P08515 1-218 = GST).
T1 construct: also called control GST
As to the kind of experiment: affinity precipitation on GSH beads from BJAB lysate, anti-WIP Western blot. For orientation: In western blotting, separated proteins are transferred to a membrane and probed.

The target of test [2] is T2, full length WASP cloned into the bait vector pGBT9 (Gal4 binding domain fusion) (UniProt P04386 1-147; P42768 1-502).
T2 construct: also called WAS protein
Kind of test: yeast two-hybrid.

B1: endogenous WIP from BJAB cells (other)
chain: MPVPPPPAPPPPPTFALANTEKPTLNKTEQAGRNALLSDISKGKKLKKTVTNDRSAPILDKPKGAGAGGGGGGFGGGGGFGGGGGGGGGGSFGGGGPPGLGGLFQAGMPKLRSTANRDNDSGGSRPPLLPPGGRSTSAKPFSPPSGPGRFPVPSPGHRSGPPEPQRNRMPPPRPDVGSKPDSIPPPVPSTPRPIQSSLHNRGSPPVPGGPRQPSPGPTPPPFPGNRGTALGGGSIRQSPLSSSSPFSNRPPLPPTPSRALDDKPPPPPPPVGNRPSIHREAVPPPPPQNNKPPVPSTPRPSAPHRPHLRPPPPSRPGPPPLPPSSSGNDETPRLPQRNLSLSSSTPPLPSPGRSGPLPPPPSERPPPPVRDPPGRSGPLPPPPPVSRNGSTSRALPATPQLPSRSGVDSPRSGPRPPLPPDRPSAGAPPPPPPSTSIRNGFQDSPCEDEWESRFYFHPISDLPPPEPYVQTTKSYPSKLARNESRSGSNRRERGGPPLPPIPR
notes: Endogenous protein in BJAB lysate, detected with anti-WIP rabbit antibody; also called full-length WIP
In the case of B1, in test [1], the binding result is “no binding”.

B2: pGAD-WIP-(321-415) (other, not shown: large carriers)
chain: LPPSSSGNDETPRLPQRNLSLSSSTPPLPSPGRSGPLPPPPSERPPPPVRDPPGRSGPLPPPPPVSRNGSTSRALPATPQLPSRSGVDSPRSGPR
notes: Made from pGAD-WIP4 by StuI and PstI digestion
With B2, in test [2], the binding result is given as “no binding”.
